Literature values as cited in patent US7354906B2, “Composition of anti-HIV drugs and anti-cortisol compounds and method for decreasing the side effects of anti-HIV drugs in a human” (Samaritan Pharmaceuticals, Inc., priority 1999, dated 2008).
For at least one compound, name, drawing or mass did not settle the structure.

Test system: Human Natural Killer (NK) Cell Activity

CC#C[C@]1(O)CC[C@H]2[C@@H]3CCC4=CC(=O)CCC4=C3[C@@H](c3ccc(N(C)C)cc3)C[C@@]21C [RU 486]
inhibitory effect of cortisol: partially or totally prevented
